# Laboratory results published in the supplement of paper PMC8728848.
# This is one part of the list.
# B1: Awp3 (Candida glabrata), B4UN32 (protein)
# chain: MISFVTLLAILGLLSISWADQTVRSVAGDQRVTDPVIVGDNSILDYYGGSNYDFSNNFEIGRGTLYIGKESYFSSFQSAPTDVPNSFHLLIKNTNNLQNNGQFIIENIKRHANQCSNSSIQVFPINFQNDGEFEIISGGVEGRCCLPTSVIAPQNFLNNGKFYYKVLTDTGSIYSGSCMQNVDIGASTTTTVNNNLWEFTGSINAQINGAVSGAAQINLDGSNMFVNANTFSGQVVNLINGGSFLQTSDPLSNIVVINGLGTSDTGVTSIAVKGKGKSFTYNPSSGIVKLTTVEGKTYAYQIGCGYNTKKFITNNDSGASYESADNFFVLTYSEPYSPQTCQLENSSIFSSNFISTSTSSSSSSSSASSLPSSMSSSLPSSLSSSLSSSLSSSMSSSMSSLFIIPPPYTTTRSSGSSIIDTEIVSFYSTTDSPGHTITGTTTTTLYGPHTHSSVSTPSSSSESSTTSNSSIESSSLPHTSVSSTPESSITPSSNTISSSPTSDFSSVQSSSIMESSSVVASSSVINSSSIVDSSSSSASSLPSSMSSSLSSSMSSSLPSSMSSSLSSSLSSSLSSSMSSSMSSLFIIPPPYTTTRSSGSSIIDTEIVSFYSTTDSPGHTITGTTTTTLYGPHTHSSVSTPSSSSESSTTSNSSIESSSLPHTSVSSTPESSITPSSNTISSSPTSDFSSVQSSSIMESSSVVASSSVINSSSIVDSSSSSASSLPSSMPSSLPSSMSSSLSSSMSSSLSSSLSSSLSSSMSSSMSSLFIIPPPYTTTRSSGSSIIDTEIVSFYSTTDSPGHTITGTTTTTLYGPHTHSSVSTPSSSSESSTTSNSSIESSSLPHTSVSSTPESSITPSSNTISSSPTSDFSSVQSSSIMESSSVVASSSATQSSSVINSSSIVDSSSSSASSLPSSMPSSLPSSLSSSLSSSLSSSMSSSMSSLFIIPPPYTTTRSSGSSIIDTEIVSFYSTTDSPGHTITGTTTTTLYESSIYSSSSSTIQESELSNTSRTTMTSNSSVSISSTSSRSSFSNTKSSTIVISQSASLPDSKTDIILSTSSNIGYSSRSLLSDLGTSISDSDIHHSVLHSTESYSSNESGTNPFTSIASLSNFIPESSSHTSTALGSENSVISSDILTTMSHPVATNSGDKPTTPKRSEQVSTTMTSSGPTPDTSSFDTDGMSAYSRPEFTTNSLEVNKSSTSQLGNNKQTFSNLQLESTRPHSENEVDNNTRLLQSIQQSSTYGTNNVNPLSPTGSISIPLTEDGQGDNNNWNSPATNDLCTQISFNLTATTITVTDRITITDSIHDISSEVITSYIYQTIVDQKTVTQTVDGKSLANKMSSIPKPSSRSLIQPQPPVAIELQEGAASTSRVSLVSLFISIILVLL
# Tests used:
# Test in all cases: glycan array binding signal (z-score within array); higher = stronger binding
# Conditions in all cases: glycan notation: IUPAC condensed, linker removed
# [1] = target: Fuc(a1-2)[GalNAc(a1-3)]Gal(b1-3)GlcNAc(b1-6)GalNAc
# Summary of the method: (§1)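 Columns mapping to the same glycan were averaged after glycan names were converted to IUPAC-condensed notation. The data come from 3228 arrays in the Consortium for Functional Glycomics database, limited to those with an available protein sequence. Binding is reported as a within-array Z-score averaged across arrays of one protein sequence and across linkers.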
# [2] = target: Fuc(a1-2)[GalNAc(a1-3)]Gal(b1-4)Glc
# Summary of the method: as §1
# [3] = target: Fuc(a1-2)[GalNAc(a1-3)]Gal(b1-4)GlcNAc
# Summary of the method: as §1
# [4] = target: Fuc(a1-2)[GalNAc(a1-3)]Gal(b1-4)GlcNAc(b1-2)Man
# Summary of the method: as §1
# [5] = target: Fuc(a1-2)[GalNAc(a1-3)]Gal(b1-4)GlcNAc(b1-2)Man(a1-3)[Fuc(a1-2)[GalNAc(a1-3)]Gal(b1-4)GlcNAc(b1-2)Man(a1-6)]Man(b1-4)GlcNAc(b1-4)GlcNAc
# Summary of the method: as §1
# [6] = target: Fuc(a1-2)[GalNAc(a1-3)]Gal(b1-4)GlcNAc(b1-2)Man(a1-3)[Fuc(a1-2)[GalNAc(a1-3)]Gal(b1-4)GlcNAc(b1-2)Man(a1-6)]Man(b1-4)GlcNAc(b1-4)[Fuc(a1-6)]GlcNAc
# Summary of the method: as §1
# [7] = target: Fuc(a1-2)[GalNAc(a1-3)]Gal(b1-4)GlcNAc(b1-3)Gal(b1-4)GlcNAc
# Summary of the method: as §1
# [8] = target: Fuc(a1-2)[GalNAc(a1-3)]Gal(b1-4)GlcNAc(b1-3)Gal(b1-4)GlcNAc(b1-3)Gal(b1-4)GlcNAc
# Summary of the method: as §1
# [9] = target: Fuc(a1-2)[GalNAc(a1-3)]Gal(b1-4)GlcNAc(b1-3)GalNAc
# Summary of the method: as §1
# [10] = target: Fuc(a1-2)[GalNAc(a1-3)]Gal(b1-4)GlcNAc(b1-3)[Fuc(a1-2)[GalNAc(a1-3)]Gal(b1-4)GlcNAc(b1-6)]GalNAc
# Summary of the method: as §1
# [11] = target: Fuc(a1-2)[GalNAc(a1-3)]Gal(b1-4)GlcNAc(b1-6)GalNAc
# Summary of the method: as §1
# [12] = target: Fuc(a1-2)[GalNAc(a1-3)]Gal(b1-4)[Fuc(a1-3)]GlcNAc
# Summary of the method: as §1
# [13] = target: Fuc(a1-2)[GalNAc(a1-3)]Gal(b1-4)[Fuc(a1-3)]GlcNAc(b1-3)GalNAc
# Summary of the method: as §1
# [14] = target: Fuc(a1-2)[GalNAc(a1-4)]Gal(b1-4)GlcNAc
# Summary of the method: as §1
# [15] = target: Fuc(a1-2)[GalNAc(b1-3)]Gal
# Summary of the method: as §1
# [16] = target: Fuc(a1-3)GlcNAc
# Summary of the method: as §1
# [17] = target: Fuc(a1-3)[Gal(b1-4)]Glc6S
# Summary of the method: as §1
# [18] = target: Fuc(a1-3)[Gal(b1-4)]GlcNAc
# Summary of the method: as §1
# [19] = target: Fuc(a1-3)[Gal(b1-4)]GlcNAc(b1-2)Man
# Summary of the method: as §1
# [20] = target: Fuc(a1-3)[Gal(b1-4)]GlcNAc(b1-2)Man(a1-3)[Fuc(a1-3)[Gal(b1-4)]GlcNAc(b1-2)Man(a1-6)]Man(b1-4)GlcNAc(b1-4)GlcNAc
# Summary of the method: as §1
# [21] = target: Fuc(a1-3)[Gal(b1-4)]GlcNAc(b1-2)Man(a1-3)[Fuc(a1-3)[Gal(b1-4)]GlcNAc(b1-2)Man(a1-6)]Man(b1-4)GlcNAc(b1-4)[Fuc(a1-6)]GlcNAc
# Summary of the method: as §1
# [22] = target: Fuc(a1-3)[Gal(b1-4)]GlcNAc(b1-3)Gal(b1-3)[Fuc(a1-4)]GlcNAc
# Summary of the method: as §1
# [23] = target: Fuc(a1-3)[Gal(b1-4)]GlcNAc(b1-3)Gal(b1-4)[Fuc(a1-3)]GlcNAc
# Summary of the method: as §1
# [24] = target: Fuc(a1-3)[Gal(b1-4)]GlcNAc(b1-3)Gal(b1-4)[Fuc(a1-3)]GlcNAc(b1-3)Gal(b1-4)[Fuc(a1-3)]GlcNAc
# Summary of the method: as §1
# [25] = target: Fuc(a1-3)[Gal(b1-4)]GlcNAc(b1-3)GalNAc
# Summary of the method: as §1
# [26] = target: Fuc(a1-3)[Gal(b1-4)]GlcNAc(b1-6)GalNAc
# Summary of the method: as §1
# [27] = target: Fuc(a1-3)[Gal(b1-4)]GlcNAc(b1-6)[Gal(b1-3)GlcNAc(b1-3)]Gal(b1-4)Glc
# Summary of the method: as §1
# [28] = target: Fuc(a1-3)[Gal(b1-4)]GlcNAc6S
# Summary of the method: as §1
# [29] = target: Fuc(a1-3)[Gal3S(b1-4)]Glc
# Summary of the method: as §1
# [30] = target: Fuc(a1-3)[Gal3S(b1-4)]GlcNAc
# Summary of the method: as §1
# [31] = target: Fuc(a1-3)[Gal3S(b1-4)]GlcNAc6S
# Summary of the method: as §1
# [32] = target: Fuc(a1-3)[GalNAc(b1-4)]GlcNAc
# Summary of the method: as §1
# [33] = target: Fuc(a1-3)[GalNAc(b1-4)]GlcNAc6S
# Summary of the method: as §1
# [34] = target: Fuc(a1-4)GlcNAc
# Summary of the method: as §1
# [35] = target: Fuc(b1-3)GlcNAc
# Summary of the method: as §1
# [36] = target: Gal(a1-2)Gal
# Summary of the method: as §1
# [37] = target: Gal(a1-3)Gal
# Summary of the method: as §1
# [38] = target: Gal(a1-3)Gal(b1-3)GlcNAc
# Summary of the method: as §1
# [39] = target: Gal(a1-3)Gal(b1-3)GlcNAc(b1-2)Man
# Summary of the method: as §1
# [40] = target: Gal(a1-3)Gal(b1-3)GlcNAc(b1-2)Man(a1-3)[Gal(a1-3)Gal(b1-3)GlcNAc(b1-2)Man(a1-6)]Man(b1-4)GlcNAc(b1-4)GlcNAc
# Summary of the method: as §1
# [41] = target: Gal(a1-3)Gal(b1-3)GlcNAc(b1-3)GalNAc
# Summary of the method: as §1
# [42] = target: Gal(a1-3)Gal(b1-3)GlcNAc(b1-6)GalNAc
# Summary of the method: as §1
# [43] = target: Gal(a1-3)Gal(b1-3)[Fuc(a1-4)]GlcNAc(b1-2)Man(a1-3)[Gal(a1-3)Gal(b1-3)[Fuc(a1-4)]GlcNAc(b1-2)Man(a1-6)]Man(b1-4)GlcNAc(b1-4)GlcNAc
# Summary of the method: as §1
# [44] = target: Gal(a1-3)Gal(b1-4)Glc
# Summary of the method: as §1
# [45] = target: Gal(a1-3)Gal(b1-4)GlcNAc
# Summary of the method: as §1
binder,measurement,setting,value
B1,glycan array binding signal (z-score),[1],0.16
same,glycan array binding signal (z-score),[2],0.303
same,glycan array binding signal (z-score),[3],0.008
same,glycan array binding signal (z-score),[4],-0.968
same,glycan array binding signal (z-score),[5],-0.074
same,glycan array binding signal (z-score),[6],0.233
same,glycan array binding signal (z-score),[7],-1.51
same,glycan array binding signal (z-score),[8],0.634
same,glycan array binding signal (z-score),[9],-1.39
same,glycan array binding signal (z-score),[10],0.218
same,glycan array binding signal (z-score),[11],0.264
same,glycan array binding signal (z-score),[12],-0.973
same,glycan array binding signal (z-score),[13],-1.25
same,glycan array binding signal (z-score),[14],-0.218
same,glycan array binding signal (z-score),[15],1.15
same,glycan array binding signal (z-score),[16],-1.25
same,glycan array binding signal (z-score),[17],-1.57
same,glycan array binding signal (z-score),[18],-1.34
same,glycan array binding signal (z-score),[19],1.78
same,glycan array binding signal (z-score),[20],-0.607
same,glycan array binding signal (z-score),[21],0.65
same,glycan array binding signal (z-score),[22],-1.29
same,glycan array binding signal (z-score),[23],1.09
same,glycan array binding signal (z-score),[24],0.147
same,glycan array binding signal (z-score),[25],0.518
same,glycan array binding signal (z-score),[26],0.39
same,glycan array binding signal (z-score),[27],-0.414
same,glycan array binding signal (z-score),[28],1.18
same,glycan array binding signal (z-score),[29],-0.133
same,glycan array binding signal (z-score),[30],-0.473
same,glycan array binding signal (z-score),[31],0.585
same,glycan array binding signal (z-score),[32],0.68
same,glycan array binding signal (z-score),[33],1.2
same,glycan array binding signal (z-score),[34],0.299
same,glycan array binding signal (z-score),[35],-0.579
same,glycan array binding signal (z-score),[36],-0.832
same,glycan array binding signal (z-score),[37],0.937
same,glycan array binding signal (z-score),[38],-0.723
same,glycan array binding signal (z-score),[39],1.14
same,glycan array binding signal (z-score),[40],0.241
same,glycan array binding signal (z-score),[41],0.407
same,glycan array binding signal (z-score),[42],-1.37
same,glycan array binding signal (z-score),[43],1.73
same,glycan array binding signal (z-score),[44],0.672
same,glycan array binding signal (z-score),[45],1.06

# Looked up one by one from above (2):
binder,measurement,setting,value
B1,glycan array binding signal (z-score),[45],1.06
same,glycan array binding signal (z-score),[6],0.233
